Assay results reported in patent publication US7964180B2, “Method for enhancing effects of colorants and conditioners” (E. I. du Pont de Nemours and Company, priority 2005, dated 2011).

Assay: Spectrophotometric color retention (Delta E, CIELAB) of dyed hair after shampoo treatment, peptide as sealant
Parameters: species or system human
Details: Red Dye No. 33 0.07 wt %, one shampoo treatment, larger = better color retention

**Q.** Which results are given for “IPWWNIRAPLNA (Hair-binding Peptide) [A09]”?
**A.** Delta E (peptide conc. 0.25 wt %): 25.6; Delta E (peptide conc. 0.95 wt %): 34.8

**Q.** For “Random: random peptide used as comparative sealant; sequence not printed in the text (KSKPYPYPPPLPVRPWT; Random Peptide Sequence) [reference compound]”, which “Delta E” value (peptide conc. 0.25 wt %) is on record?
**A.** 10.8

**Q.** With “TPPELLHGDPRSC (Hair-binding peptide haveing a cysteine residue added to the C-terminus) [IB5-Cys]” as the molecule, how does the “Delta E” value (peptide conc. 0.25 wt %) read?
**A.** 20.4

B1: PNTSQLSTGGGRTNAADHPKCGGGNTSQLSTGGGRTNAADHPKCGGGNTSQLSTGGGRTNAADHPKC (protein)
chain: PNTSQLSTGGGRTNAADHPKCGGGNTSQLSTGGGRTNAADHPKCGGGNTSQLSTGGGRTNAADHPKC
modifications: Multi-Copy Hair-Binding Peptide
**Q.** With B1 as the molecule, how does the “Delta E” value (peptide conc. 0.25 wt %) read?
**A.** 19.8
